# Laboratory results reported in PubChem BioAssay AID1259415 (National Center for Advancing Translational Sciences (NCATS), 2018).
# In all, about 410,000 compounds went through this assay and about 18,000 (4.4%) were called active. Inconclusive means that the source gave no clear call. Such entries were picked first, then a sample of the others. No stated cut-off is given here; in the data, active means activity change below about -60%; inconclusive means no clear call, values can overlap the other calls; inactive means above about -39%.
# Test: qHTS Assay for inhibitors of the human cytomegalovirus (HCMV)
# Conditions: HFF cells, HCMV-luciferase reporter, 72 h; at 57.5 µM; hits give low values
# Summary of the method: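 Two-dose cell screen: HFF monolayers treated with compounds and infected with luciferase-expressing HCMV at 1 PFU/cell, 72 h at 37C, then lysed for luciferase measurement.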
# On the % scale 0 is the no-effect control and ±100 the full control effect.
row,SMILES,"activity change, negative = inhibition"
1,Cc1cc(N2CCN(c3ccccc3F)CC2)nc2cc(O)ccc12,inactive: 131%
2,Nc1nc(C23CC4CCC(CC(C4)C2)C3)cs1,inconclusive: -41.3%
3,COc1ccccc1NC(=S)NCCN1CCOCC1,inconclusive: -50.1%
4,CCCCn1nc(C(=O)N(CC)CC(=O)Nc2c(F)cccc2F)c2ccccc2c1=O,inconclusive: -41.9%
5,Cc1nnc(SCC(=O)N2CCN(c3ccccc3)CC2)n1C1CC1,inconclusive: 0%
6,COc1ccc(C(NC(=O)c2ccccc2F)NC(=O)c2ccccc2F)cc1,inactive: -12.9%
7,COc1ccc(OC)c(NC(=O)c2cnc(Nc3ccc(C)c(Cl)c3)c3ccccc23)c1,inconclusive: -54.5%
8,CC1CCC(N2CC(=O)N(CCC3=CCCCC3)C(c3ccc(F)cc3)C2=O)CC1 (stereo not drawn),inconclusive: -51%
9,O=C1c2ccccc2C(=O)C1c1ccnc2ccccc12,inactive: -17.1%
10,O=C(NCCO)/C(=C\c1ccc2c(c1)OCO2)NC(=O)c1ccc(Br)cc1,inconclusive: -42.7%
11,COc1ccc(S(=O)(=O)N2CCN(C(=O)c3ccc4ccccc4n3)CC2)cc1,inconclusive: -40.3%
12,O=C(c1cccc(N2C(=O)C3CC=CCC3C2=O)c1)N1CCCc2ccccc21 (stereo not drawn),inconclusive: -48.4%
13,Cc1ccc(NC(=O)C(=O)NCCc2c[nH]c3ccccc23)c(C)c1,inconclusive: -52.7%
14,O=c1nc2ccccc2c2n1CC(CN1CCN(c3ccccc3F)CC1)N2 (stereo not drawn),inconclusive: -43.4%
15,CCOC(=O)[C@@H]1[C@H]2COc3ccccc3[C@@H]2N2C(=O)N(c3ccc(OC)cc3)C(=O)[C@@]12C,inconclusive: -43.2%
16,CCOC(=O)N1CCN(C(=O)C2CCCN(S(=O)(=O)c3ccc(C)cc3)C2)CC1 (stereo not drawn),active: -60.7%
17,O=S1(=O)NC(=NCc2ccccc2)c2ccccc21,inconclusive: -52.1%
18,OCC[n+]1ccc(/C=C/c2c[nH]c3ccccc23)cc1,active: -98.6%
19,CC1Cc2ccccc2N1S(=O)(=O)c1cccc(C(=O)N2CCN(c3ncccn3)CC2)c1 (stereo not drawn),active: -98.1%
20,CCOc1ccccc1CNC(=O)CCc1c(C)nn(-c2ccc(N3CCCCC3)nn2)c1C,inconclusive: -42.1%
21,c1coc(-c2nc3nc4ccccc4nc3n2CC2CCCO2)c1 (stereo not drawn),inactive: 3.95%
22,COc1ccc(NC(=S)N2CCN(c3ccc([N+](=O)[O-])cc3)CC2)cc1OC,inconclusive: -48.4%

# Of the compounds above, these contain an NH in an aromatic ring.
row,SMILES,"activity change, negative = inhibition"
13,Cc1ccc(NC(=O)C(=O)NCCc2c[nH]c3ccccc23)c(C)c1,inconclusive: -52.7%
18,OCC[n+]1ccc(/C=C/c2c[nH]c3ccccc23)cc1,active: -98.6%

# The listing continues:

row,SMILES,"activity change, negative = inhibition"
1,Cc1ccc(NS(=O)(=O)c2ccc(-c3cnc(C4CC4)o3)cc2)cc1N(C)C,inconclusive: -56.8%
2,CC1(C)Cc2ccccc2-c2nnnn21,inconclusive: -40%
3,COC(=O)c1cc2n(n1)CCCNC2=O,inactive: 14.4%
4,Cc1ccc(-n2nc3c(N4CCC(C(=O)NCc5ccc(C)o5)CC4)nnc(C)c3c2C)cc1,active: -67.4%
5,CC1CCC(N2CC(=O)N(C3CCCCC3)C(c3ccc(Cl)cc3)C2=O)CC1 (stereo not drawn),inconclusive: -58.9%
6,CCOC(=O)CNC(=S)N(CCCN1CCCCCC1)Cc1cccs1,active: -88.5%
7,CCCCNC(=O)Nc1ccccc1CC,inactive: -9.93%
8,O=c1cc(N2CCN(c3ccccc3Cl)CC2)[nH]c(=O)n1Cc1ccc(F)cc1,inactive: -30.2%
9,CCc1ccccc1NC(=O)CSc1nnc([C@@H](N)Cc2c[nH]c3ccccc23)o1,inactive: 1.77%
10,Cc1nc2ccc(F)cc2cc1C(=O)NCc1ccco1,inactive: 13.2%
11,CCSc1nnc(NC(=O)CSc2nc3c(cc2C#N)CCCC3)s1,inconclusive: -46.1%
12,O=S(=O)(c1cc(Cl)ccc1Cl)N1CC2CCCN2c2ccc(C(F)(F)F)cc21 (stereo not drawn),inconclusive: -41.6%
13,Cc1cnc(NC(=O)c2cc3c(s2)CCCC3)s1,inconclusive: -46.2%
14,COc1ccc(/C=C/c2ccc3c(Br)ccc(O)c3n2)cc1,inconclusive: -42.8%
15,Cc1cccc(NC(=O)C2CC(=O)n3ncnc3N2)c1 (stereo not drawn),inconclusive: -40.7%
16,COc1ccc(-c2cn[nH]c2-c2ccc(OCc3ccccc3)cc2O)cc1,active: -71.4%
17,CC(=NNC(=S)SCc1ccccc1)c1ccccn1,active: -96.5%
18,O=C1N/C(=C\c2ccc(O)cc2)C(O)=C1C=NCc1ccccc1,inactive: -8.22%
19,CCCCNC(=O)C1CCC(CNc2c(N3CCC(C)CC3)c(=O)c2=O)CC1 (stereo not drawn),inconclusive: -46.1%
20,Cc1cc(OCC(O)CN2CCN(CCO)CC2)ccc1C(C)C (stereo not drawn),inactive: -19.3%
21,CC(NC(=O)CSc1nnc(-c2cccc(S(=O)(=O)N3CCCCC3)c2)o1)C12CC3CC(CC(C3)C1)C2 (stereo not drawn),inconclusive: -41.4%
